# Assay results as given in the supplement of paper PMC6411743.
# The chains behind the UniProt entries cited, without tags or fusion partners. Where a name states a change or a piece, a line headed by the entry shows the natural chain unless it says otherwise.
# UniProt P30038: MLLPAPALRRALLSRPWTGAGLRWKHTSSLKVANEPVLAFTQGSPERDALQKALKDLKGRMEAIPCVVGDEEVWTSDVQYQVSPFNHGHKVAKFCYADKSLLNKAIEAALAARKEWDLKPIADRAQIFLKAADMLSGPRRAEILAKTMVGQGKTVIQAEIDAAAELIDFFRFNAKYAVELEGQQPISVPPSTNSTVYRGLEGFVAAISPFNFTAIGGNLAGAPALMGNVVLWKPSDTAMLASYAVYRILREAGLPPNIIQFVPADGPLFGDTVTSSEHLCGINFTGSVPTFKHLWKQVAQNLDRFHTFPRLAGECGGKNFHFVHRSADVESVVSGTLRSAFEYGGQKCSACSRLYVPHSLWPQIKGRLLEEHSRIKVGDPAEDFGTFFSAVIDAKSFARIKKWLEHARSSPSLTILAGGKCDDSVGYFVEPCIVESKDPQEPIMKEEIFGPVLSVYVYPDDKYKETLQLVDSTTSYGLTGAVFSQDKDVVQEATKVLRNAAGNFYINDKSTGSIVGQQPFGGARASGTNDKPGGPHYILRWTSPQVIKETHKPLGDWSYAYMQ
# UniProt P35611: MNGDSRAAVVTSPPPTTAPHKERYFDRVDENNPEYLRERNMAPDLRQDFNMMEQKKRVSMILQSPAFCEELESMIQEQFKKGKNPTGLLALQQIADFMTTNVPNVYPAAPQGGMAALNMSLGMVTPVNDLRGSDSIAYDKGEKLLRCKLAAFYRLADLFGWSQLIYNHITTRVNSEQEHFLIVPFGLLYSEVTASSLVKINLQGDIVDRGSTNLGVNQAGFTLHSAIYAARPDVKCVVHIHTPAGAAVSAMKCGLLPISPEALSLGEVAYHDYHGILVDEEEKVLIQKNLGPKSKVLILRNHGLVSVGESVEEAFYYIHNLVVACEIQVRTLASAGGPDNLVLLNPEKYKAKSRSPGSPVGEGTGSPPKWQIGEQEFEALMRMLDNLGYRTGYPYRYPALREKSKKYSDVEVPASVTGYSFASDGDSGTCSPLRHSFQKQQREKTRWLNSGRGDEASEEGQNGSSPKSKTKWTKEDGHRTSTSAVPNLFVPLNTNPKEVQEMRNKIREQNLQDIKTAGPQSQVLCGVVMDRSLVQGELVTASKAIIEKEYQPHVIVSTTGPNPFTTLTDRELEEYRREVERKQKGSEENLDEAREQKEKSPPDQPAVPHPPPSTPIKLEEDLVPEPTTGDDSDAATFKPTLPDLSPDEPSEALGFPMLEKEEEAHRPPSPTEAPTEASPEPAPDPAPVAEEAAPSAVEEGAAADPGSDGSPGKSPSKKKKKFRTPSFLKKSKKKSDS
# UniProt P30153, whole entry: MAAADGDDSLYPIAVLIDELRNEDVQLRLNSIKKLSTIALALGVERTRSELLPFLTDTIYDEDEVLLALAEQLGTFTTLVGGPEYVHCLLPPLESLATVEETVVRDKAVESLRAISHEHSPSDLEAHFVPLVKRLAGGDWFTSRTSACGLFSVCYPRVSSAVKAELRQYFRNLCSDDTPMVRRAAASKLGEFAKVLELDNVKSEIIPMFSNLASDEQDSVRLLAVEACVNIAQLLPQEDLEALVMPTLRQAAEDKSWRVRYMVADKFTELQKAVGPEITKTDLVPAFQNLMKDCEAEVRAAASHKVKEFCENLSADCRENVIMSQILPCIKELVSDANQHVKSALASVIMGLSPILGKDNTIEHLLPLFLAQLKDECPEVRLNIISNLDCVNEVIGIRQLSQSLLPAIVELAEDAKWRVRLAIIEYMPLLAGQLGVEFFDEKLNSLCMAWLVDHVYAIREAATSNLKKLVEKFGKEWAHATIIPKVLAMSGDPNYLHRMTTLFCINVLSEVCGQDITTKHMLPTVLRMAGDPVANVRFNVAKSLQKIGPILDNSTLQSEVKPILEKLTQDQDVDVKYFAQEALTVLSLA
# UniProt P42574: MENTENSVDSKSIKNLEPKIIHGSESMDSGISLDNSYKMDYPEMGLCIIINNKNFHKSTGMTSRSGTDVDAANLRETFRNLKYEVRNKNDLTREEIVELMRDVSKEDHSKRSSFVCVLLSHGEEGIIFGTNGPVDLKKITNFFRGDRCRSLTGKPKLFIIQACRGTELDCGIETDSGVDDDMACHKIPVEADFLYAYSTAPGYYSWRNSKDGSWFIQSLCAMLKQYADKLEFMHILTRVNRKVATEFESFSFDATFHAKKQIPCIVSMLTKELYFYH
# UniProt P46734: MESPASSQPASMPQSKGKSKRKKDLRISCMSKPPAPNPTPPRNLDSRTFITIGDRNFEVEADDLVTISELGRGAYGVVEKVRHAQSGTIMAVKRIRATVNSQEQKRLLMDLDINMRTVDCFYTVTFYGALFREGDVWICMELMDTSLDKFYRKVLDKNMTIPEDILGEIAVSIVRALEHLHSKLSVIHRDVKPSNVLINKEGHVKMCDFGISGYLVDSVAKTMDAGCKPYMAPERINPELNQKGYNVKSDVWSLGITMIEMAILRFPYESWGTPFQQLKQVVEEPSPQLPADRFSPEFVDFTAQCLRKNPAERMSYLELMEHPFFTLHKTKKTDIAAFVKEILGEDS
# UniProt P49137, whole entry, looked up: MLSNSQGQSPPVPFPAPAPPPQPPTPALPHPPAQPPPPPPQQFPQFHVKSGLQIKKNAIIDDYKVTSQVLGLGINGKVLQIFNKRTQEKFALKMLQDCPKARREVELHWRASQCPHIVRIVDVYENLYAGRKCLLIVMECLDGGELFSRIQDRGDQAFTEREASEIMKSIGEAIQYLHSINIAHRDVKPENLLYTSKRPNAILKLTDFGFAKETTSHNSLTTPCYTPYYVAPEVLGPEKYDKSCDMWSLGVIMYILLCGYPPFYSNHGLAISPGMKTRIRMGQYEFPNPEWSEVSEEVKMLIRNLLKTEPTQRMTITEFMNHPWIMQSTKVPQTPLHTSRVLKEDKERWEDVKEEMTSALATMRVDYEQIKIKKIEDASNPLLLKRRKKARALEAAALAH
# UniProt P38935: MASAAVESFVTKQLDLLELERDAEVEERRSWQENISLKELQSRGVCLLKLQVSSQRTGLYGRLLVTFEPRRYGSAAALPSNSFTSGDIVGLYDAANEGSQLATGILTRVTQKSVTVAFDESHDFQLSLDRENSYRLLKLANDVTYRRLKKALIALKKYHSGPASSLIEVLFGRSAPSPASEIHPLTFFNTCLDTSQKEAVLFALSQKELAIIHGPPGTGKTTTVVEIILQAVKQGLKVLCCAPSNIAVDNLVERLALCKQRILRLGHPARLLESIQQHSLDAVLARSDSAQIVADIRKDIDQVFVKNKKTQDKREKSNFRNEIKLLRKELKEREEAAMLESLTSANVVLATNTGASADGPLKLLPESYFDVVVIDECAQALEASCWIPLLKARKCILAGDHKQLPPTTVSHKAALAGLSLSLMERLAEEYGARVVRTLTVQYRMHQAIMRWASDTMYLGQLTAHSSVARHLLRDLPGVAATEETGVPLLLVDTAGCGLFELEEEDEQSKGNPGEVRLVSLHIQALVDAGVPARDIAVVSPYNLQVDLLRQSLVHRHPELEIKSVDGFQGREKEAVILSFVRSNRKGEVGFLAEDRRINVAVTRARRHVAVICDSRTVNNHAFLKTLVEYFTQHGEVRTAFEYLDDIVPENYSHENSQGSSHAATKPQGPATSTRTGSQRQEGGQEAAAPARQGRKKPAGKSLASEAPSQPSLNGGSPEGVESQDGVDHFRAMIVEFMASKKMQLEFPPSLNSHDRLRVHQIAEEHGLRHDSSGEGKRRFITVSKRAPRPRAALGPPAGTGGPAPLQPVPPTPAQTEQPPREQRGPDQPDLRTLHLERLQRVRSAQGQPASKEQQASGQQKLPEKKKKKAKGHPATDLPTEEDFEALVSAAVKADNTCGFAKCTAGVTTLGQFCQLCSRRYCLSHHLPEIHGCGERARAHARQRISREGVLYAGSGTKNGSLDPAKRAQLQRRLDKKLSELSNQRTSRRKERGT
# UniProt P48729: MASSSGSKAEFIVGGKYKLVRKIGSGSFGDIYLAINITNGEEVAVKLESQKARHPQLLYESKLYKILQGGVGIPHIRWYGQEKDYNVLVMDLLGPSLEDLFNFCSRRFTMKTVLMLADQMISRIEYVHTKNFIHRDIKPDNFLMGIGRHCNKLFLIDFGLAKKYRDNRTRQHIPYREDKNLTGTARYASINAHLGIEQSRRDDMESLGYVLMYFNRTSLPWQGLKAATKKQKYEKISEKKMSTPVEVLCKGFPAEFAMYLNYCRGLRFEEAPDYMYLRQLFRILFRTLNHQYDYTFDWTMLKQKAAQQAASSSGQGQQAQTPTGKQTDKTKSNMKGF
# UniProt P32519: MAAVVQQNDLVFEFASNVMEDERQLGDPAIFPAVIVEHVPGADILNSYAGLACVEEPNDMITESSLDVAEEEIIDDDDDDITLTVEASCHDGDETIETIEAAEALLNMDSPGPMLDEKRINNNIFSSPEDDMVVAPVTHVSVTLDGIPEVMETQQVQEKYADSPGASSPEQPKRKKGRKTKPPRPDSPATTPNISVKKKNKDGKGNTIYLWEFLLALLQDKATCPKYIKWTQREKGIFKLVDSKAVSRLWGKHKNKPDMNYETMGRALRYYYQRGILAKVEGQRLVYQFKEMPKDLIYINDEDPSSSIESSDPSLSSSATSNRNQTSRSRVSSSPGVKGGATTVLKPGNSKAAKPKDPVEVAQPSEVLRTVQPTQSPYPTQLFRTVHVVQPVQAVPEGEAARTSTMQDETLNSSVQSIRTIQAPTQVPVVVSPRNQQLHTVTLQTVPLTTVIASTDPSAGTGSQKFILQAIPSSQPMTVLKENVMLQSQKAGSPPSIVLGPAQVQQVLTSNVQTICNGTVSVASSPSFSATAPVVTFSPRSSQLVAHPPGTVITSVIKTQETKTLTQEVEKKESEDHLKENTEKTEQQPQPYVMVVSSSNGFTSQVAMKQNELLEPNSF
# UniProt P49841: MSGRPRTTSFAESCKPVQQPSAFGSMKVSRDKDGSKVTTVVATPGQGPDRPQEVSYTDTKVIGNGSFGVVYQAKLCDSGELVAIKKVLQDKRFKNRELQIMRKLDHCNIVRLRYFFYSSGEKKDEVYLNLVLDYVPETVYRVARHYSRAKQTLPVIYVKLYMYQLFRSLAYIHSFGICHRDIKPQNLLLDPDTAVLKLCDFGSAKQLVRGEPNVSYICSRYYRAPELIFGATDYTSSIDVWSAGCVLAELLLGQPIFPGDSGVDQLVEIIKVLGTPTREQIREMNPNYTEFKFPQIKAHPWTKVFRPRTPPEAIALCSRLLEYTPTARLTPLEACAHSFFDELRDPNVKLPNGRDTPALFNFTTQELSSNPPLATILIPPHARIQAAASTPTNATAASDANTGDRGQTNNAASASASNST
# UniProt P38606, whole entry: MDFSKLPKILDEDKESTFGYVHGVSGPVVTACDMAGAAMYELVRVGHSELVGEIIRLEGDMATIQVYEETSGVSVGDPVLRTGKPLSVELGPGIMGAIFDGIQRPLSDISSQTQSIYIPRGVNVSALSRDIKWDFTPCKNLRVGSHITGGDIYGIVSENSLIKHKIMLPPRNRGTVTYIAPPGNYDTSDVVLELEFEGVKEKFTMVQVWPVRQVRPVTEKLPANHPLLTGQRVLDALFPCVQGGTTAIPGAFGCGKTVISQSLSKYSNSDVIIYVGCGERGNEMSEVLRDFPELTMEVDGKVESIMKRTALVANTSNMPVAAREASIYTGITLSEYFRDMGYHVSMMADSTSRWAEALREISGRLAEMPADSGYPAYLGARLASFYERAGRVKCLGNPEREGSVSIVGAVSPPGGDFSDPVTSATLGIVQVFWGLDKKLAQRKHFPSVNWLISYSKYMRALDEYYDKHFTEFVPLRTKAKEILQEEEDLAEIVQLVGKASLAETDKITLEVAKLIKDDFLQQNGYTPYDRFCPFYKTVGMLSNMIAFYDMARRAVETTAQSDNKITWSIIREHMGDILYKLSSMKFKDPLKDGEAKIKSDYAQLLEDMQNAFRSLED
# UniProt P50148, whole entry: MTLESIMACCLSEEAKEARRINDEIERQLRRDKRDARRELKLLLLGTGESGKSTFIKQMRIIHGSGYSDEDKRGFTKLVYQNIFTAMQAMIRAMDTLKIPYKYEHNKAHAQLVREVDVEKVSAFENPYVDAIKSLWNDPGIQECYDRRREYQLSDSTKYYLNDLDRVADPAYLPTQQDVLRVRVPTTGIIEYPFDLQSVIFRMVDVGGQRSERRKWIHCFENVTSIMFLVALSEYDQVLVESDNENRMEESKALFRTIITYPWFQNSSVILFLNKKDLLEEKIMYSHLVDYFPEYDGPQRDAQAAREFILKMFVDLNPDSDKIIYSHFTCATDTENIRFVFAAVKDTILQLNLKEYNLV
# ± gives the standard deviation of the averaged measurements. This is one part of the list.
# Compound: Nc1nc2c(ncn2[C@@H]2O[C@H](COP(=O)(O)OP(=O)(O)OP(=O)(O)O)[C@@H](O)[C@H]2O)c(=O)[nH]1 [guanosine triphosphate]
# Assay: NP40-soluble protein abundance relative to vehicle (solubility fold change) (ratio); higher = more soluble protein in presence of GTP
# Method in brief: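 Across three independent experiments, values are fold changes against the detergent-processed vehicle for each replicate, based on vsn-normalised intensities. The samples were Jurkat crude lysate treated with eight concentrations (0.1 to 10 mM) for 10 min at room temperature and then 3 min at 37 °C. Lysate was solubilised with 0.8% NP40 and benzonase, ultracentrifuged, and the supernatant analysed by TMT-labelled LC-MS/MS.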
Target,NP40-soluble protein abundance (concentration: 0.1mM),NP40-soluble protein abundance (concentration: 0.5mM),NP40-soluble protein abundance (concentration: 1mM),NP40-soluble protein abundance (concentration: 2mM),NP40-soluble protein abundance (concentration: 4mM),NP40-soluble protein abundance (concentration: 6mM),NP40-soluble protein abundance (concentration: 8mM),NP40-soluble protein abundance (concentration: 10mM)
ALDH4A1 (UniProt P30038),0.964 ± 0.078,0.965 ± 0.07,0.955 ± 0.057,0.917 ± 0.083,0.917 ± 0.079,0.916 ± 0.085,0.904 ± 0.066,0.889 ± 0.069
UniProt P35611 and related entries,0.996 ± 0.029,1.018 ± 0.0043,1.01 ± 0.051,0.998 ± 0.035,0.985 ± 0.029,1 ± 0.024,1 ± 0.032,1.01 ± 0.017
PPP2R1A (UniProt P30153),0.985 ± 0.031,0.9458 ± 0.005,0.938 ± 0.019,0.899 ± 0.011,0.906 ± 0.01,0.8968 ± 0.0065,0.903 ± 0.032,0.8781 ± 0.0072
CASP3 (UniProt P42574),1.07 ± 0.025,1.03 ± 0.053,0.892 ± 0.037,0.911 ± 0.11,0.909 ± 0.047,0.856 ± 0.042,0.805 ± 0.08,0.815 ± 0.1
UniProt P46734 and related entries,1.02 ± 0.17,1.05 ± 0.12,0.957 ± 0.036,0.946 ± 0.098,0.947 ± 0.094,0.954 ± 0.087,0.987 ± 0.085,0.983 ± 0.12
MAPKAPK2 (UniProt P49137),1.1 ± 0.094,0.939 ± 0.048,1.04 ± 0.062,0.963 ± 0.062,1.02 ± 0.036,0.911 ± 0.1,1.02 ± 0.044,0.877 ± 0.077
IGHMBP2 (UniProt P38935),1.07 ± 0.072,1.09 ± 0.1,1.14 ± 0.099,1.26 ± 0.17,1.44 ± 0.26,1.6 ± 0.27,1.7 ± 0.43,1.92 ± 0.48
UniProt P48729 and related entries,0.942 ± 0.14,0.978 ± 0.12,0.91 ± 0.13,0.953 ± 0.14,0.981 ± 0.15,1.02 ± 0.18,1.04 ± 0.19,1.06 ± 0.21
EPS15 (UniProt P42566),0.963 ± 0.079,0.95 ± 0.065,0.979 ± 0.082,0.924 ± 0.091,0.939 ± 0.083,0.933 ± 0.07,0.974 ± 0.067,0.96 ± 0.086
UniProt P32519 and related entries,0.932 ± 0.036,0.949 ± 0.066,0.933 ± 0.032,0.913 ± 0.077,0.881 ± 0.065,0.916 ± 0.084,0.935 ± 0.049,0.922 ± 0.071
UniProt P32929 and related entries,1.03 ± 0.066,0.984 ± 0.084,0.902 ± 0.011,0.909 ± 0.085,0.893 ± 0.047,0.888 ± 0.047,0.875 ± 0.0037,0.847 ± 0.035
RPS19 (UniProt P39019),0.837 ± 0.13,0.891 ± 0.15,1.13 ± 0.38,1.1 ± 0.33,0.955 ± 0.39,0.892 ± 0.35,0.59 ± 0.19,0.92 ± 0.41
UniProt P49841 and related entries,0.946 ± 0.018,0.953 ± 0.014,0.872 ± 0.026,0.878 ± 0.016,0.901 ± 0.035,0.884 ± 0.0089,0.902 ± 0.028,0.874 ± 0.066
ATP6V1A (UniProt P38606),1.02 ± 0.021,1.07 ± 0.038,0.966 ± 0.043,0.99 ± 0.078,0.961 ± 0.074,0.966 ± 0.094,0.925 ± 0.034,0.908 ± 0.043
GNAQ (UniProt P50148),0.986 ± 0.015,1.02 ± 0.013,0.959 ± 0.056,0.942 ± 0.053,0.903 ± 0.03,0.927 ± 0.04,0.878 ± 0.03,0.886 ± 0.065

# An excerpt of these results, with tabs:
Target	NP40-soluble protein abundance (concentration: 0.1mM)	NP40-soluble protein abundance (concentration: 0.5mM)	NP40-soluble protein abundance (concentration: 1mM)	NP40-soluble protein abundance (concentration: 2mM)	NP40-soluble protein abundance (concentration: 4mM)	NP40-soluble protein abundance (concentration: 6mM)	NP40-soluble protein abundance (concentration: 8mM)	NP40-soluble protein abundance (concentration: 10mM)
PPP2R1A (UniProt P30153)	0.985 ± 0.031	0.9458 ± 0.005	0.938 ± 0.019	0.899 ± 0.011	0.906 ± 0.01	0.8968 ± 0.0065	0.903 ± 0.032	0.8781 ± 0.0072
MAPKAPK2 (UniProt P49137)	1.1 ± 0.094	0.939 ± 0.048	1.04 ± 0.062	0.963 ± 0.062	1.02 ± 0.036	0.911 ± 0.1	1.02 ± 0.044	0.877 ± 0.077
ATP6V1A (UniProt P38606)	1.02 ± 0.021	1.07 ± 0.038	0.966 ± 0.043	0.99 ± 0.078	0.961 ± 0.074	0.966 ± 0.094	0.925 ± 0.034	0.908 ± 0.043
